Source: paper PMC9586327
No constants are given. Whether binding was seen depends on the method and setting. Binding calls can cover weak binding; strength is not graded here.

Chains of the proteins cited; added tags and fusions are not shown. Lines headed by an entry give the natural chain unless they say otherwise; changes in a name come on top.
UniProt Q8CC35: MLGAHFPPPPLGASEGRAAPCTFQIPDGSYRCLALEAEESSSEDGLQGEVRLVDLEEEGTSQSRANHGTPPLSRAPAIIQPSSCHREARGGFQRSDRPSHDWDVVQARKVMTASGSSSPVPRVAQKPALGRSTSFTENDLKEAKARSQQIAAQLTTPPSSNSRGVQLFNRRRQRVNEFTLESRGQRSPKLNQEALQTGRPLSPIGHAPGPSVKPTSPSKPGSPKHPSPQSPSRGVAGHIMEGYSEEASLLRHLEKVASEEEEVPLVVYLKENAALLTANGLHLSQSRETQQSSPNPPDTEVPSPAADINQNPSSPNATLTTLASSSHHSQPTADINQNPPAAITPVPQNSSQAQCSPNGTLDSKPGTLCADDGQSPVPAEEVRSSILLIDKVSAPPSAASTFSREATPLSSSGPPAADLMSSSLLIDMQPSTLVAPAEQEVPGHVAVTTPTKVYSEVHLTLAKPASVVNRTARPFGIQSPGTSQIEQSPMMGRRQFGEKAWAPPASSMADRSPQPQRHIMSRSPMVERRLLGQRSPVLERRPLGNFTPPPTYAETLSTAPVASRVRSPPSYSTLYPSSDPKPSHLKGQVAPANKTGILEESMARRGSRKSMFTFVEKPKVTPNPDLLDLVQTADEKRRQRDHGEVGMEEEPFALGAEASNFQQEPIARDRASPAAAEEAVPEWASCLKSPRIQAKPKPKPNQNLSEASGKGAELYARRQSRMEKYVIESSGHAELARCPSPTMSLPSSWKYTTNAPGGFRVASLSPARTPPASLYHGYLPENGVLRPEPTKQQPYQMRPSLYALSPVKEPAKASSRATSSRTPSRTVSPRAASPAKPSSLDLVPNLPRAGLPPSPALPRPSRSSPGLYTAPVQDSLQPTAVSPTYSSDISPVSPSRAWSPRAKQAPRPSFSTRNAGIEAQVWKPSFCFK
UniProt Q9NR12: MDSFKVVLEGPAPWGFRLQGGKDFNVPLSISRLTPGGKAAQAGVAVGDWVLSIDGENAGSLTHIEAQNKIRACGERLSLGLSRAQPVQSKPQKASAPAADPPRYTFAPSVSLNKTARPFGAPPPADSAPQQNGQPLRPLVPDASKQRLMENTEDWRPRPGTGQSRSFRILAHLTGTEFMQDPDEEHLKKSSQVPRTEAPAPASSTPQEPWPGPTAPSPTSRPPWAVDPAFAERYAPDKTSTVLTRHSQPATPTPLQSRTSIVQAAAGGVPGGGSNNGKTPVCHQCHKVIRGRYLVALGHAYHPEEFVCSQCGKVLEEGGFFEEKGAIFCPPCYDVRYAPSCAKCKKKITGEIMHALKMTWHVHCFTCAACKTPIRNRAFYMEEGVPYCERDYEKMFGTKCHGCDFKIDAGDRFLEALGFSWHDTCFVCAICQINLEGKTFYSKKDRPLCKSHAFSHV
UniProt Q6RHR9: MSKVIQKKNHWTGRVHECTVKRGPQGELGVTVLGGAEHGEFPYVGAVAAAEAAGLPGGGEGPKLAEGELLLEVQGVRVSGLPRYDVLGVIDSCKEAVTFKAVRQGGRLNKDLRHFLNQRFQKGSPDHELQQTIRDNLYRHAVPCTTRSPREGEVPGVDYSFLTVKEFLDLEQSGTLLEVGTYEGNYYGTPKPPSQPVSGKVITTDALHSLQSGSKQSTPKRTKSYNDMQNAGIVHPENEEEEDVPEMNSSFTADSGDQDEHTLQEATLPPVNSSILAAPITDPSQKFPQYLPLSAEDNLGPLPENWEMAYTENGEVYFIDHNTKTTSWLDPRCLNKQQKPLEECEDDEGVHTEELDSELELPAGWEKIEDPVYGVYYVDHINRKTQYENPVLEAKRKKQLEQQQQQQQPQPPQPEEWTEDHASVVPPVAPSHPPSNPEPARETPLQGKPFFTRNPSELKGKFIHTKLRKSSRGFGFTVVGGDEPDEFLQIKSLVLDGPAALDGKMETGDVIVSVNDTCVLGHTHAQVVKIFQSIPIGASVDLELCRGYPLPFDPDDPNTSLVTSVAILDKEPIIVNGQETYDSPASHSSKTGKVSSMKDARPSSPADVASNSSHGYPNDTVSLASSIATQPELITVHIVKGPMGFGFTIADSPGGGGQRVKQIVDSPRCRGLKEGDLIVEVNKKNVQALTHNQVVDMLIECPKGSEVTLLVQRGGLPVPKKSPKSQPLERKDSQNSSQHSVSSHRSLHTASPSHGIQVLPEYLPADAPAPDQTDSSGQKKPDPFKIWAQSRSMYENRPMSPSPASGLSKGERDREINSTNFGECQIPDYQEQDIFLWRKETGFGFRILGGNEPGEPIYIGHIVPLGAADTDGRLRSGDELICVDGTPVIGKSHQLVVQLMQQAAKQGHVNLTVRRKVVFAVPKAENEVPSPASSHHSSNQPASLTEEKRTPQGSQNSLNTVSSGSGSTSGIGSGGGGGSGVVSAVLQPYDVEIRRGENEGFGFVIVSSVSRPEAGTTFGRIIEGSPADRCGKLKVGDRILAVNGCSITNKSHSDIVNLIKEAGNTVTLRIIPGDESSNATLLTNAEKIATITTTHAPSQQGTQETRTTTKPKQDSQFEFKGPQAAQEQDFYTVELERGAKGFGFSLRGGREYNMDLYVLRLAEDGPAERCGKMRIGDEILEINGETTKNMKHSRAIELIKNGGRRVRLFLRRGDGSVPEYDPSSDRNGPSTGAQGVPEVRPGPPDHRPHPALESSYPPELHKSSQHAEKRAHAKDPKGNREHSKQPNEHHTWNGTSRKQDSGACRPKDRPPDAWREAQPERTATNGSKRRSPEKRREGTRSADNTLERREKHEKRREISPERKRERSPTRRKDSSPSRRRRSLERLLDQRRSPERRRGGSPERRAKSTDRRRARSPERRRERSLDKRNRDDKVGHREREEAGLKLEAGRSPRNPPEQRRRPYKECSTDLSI
UniProt P35609: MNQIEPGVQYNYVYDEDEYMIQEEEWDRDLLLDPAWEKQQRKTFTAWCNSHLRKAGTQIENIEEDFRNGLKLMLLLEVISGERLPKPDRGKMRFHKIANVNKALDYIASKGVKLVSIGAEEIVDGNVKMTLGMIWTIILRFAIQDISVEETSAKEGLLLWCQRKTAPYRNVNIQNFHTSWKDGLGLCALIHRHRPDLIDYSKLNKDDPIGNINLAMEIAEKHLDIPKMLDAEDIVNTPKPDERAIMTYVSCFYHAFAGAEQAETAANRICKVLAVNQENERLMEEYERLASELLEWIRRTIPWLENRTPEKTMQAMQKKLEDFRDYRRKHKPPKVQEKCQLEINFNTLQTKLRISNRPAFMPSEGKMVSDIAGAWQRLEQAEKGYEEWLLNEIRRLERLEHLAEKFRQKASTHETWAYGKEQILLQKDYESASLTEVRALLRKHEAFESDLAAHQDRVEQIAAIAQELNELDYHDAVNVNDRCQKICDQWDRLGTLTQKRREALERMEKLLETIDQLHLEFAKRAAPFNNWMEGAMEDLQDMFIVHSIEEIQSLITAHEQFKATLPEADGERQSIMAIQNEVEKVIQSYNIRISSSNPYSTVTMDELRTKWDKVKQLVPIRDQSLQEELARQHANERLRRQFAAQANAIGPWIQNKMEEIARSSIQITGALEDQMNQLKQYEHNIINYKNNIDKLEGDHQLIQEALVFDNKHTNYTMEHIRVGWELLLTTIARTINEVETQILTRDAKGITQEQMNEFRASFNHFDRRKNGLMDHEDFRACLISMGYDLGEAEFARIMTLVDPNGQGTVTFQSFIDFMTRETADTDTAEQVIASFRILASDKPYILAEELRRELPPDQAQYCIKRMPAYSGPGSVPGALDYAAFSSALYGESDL
UniProt O88382: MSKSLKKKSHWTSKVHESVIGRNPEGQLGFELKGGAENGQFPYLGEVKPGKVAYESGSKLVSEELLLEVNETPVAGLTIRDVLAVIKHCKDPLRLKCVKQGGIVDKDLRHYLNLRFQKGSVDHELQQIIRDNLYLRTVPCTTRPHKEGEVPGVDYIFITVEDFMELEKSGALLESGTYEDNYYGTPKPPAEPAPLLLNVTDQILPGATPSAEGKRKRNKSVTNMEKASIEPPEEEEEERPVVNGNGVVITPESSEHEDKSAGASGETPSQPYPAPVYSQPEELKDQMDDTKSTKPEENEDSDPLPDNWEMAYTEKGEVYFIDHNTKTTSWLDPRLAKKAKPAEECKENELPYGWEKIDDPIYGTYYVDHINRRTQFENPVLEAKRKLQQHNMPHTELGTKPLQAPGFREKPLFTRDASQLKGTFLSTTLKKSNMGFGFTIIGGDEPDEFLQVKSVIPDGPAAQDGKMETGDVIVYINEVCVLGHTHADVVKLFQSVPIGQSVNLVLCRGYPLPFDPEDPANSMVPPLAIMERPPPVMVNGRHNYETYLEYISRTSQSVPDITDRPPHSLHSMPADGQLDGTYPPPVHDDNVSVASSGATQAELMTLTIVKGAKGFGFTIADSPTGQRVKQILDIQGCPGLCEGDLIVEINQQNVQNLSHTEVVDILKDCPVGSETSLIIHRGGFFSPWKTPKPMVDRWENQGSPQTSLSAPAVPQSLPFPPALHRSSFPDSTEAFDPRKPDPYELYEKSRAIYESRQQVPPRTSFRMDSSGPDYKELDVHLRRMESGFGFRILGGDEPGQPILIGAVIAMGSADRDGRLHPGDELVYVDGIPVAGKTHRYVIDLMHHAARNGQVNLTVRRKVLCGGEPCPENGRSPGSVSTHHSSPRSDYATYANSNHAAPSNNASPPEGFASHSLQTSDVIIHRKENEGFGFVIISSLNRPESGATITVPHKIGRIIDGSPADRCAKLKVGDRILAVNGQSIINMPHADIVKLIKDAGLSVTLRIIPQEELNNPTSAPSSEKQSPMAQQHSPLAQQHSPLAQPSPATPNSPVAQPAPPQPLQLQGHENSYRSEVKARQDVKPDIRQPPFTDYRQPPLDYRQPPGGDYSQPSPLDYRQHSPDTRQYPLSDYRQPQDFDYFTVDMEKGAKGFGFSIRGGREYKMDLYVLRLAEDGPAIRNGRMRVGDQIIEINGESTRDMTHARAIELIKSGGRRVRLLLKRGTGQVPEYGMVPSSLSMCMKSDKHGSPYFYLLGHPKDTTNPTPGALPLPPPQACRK

Assays:
[1] = target: mRFP-synaptopodin (UniProt Q8CC35); assay: relocalisation in cells (coexpression, fluorescence microscopy); COS-7 cells; localisation of the tagged prey expressed alone compared with coexpression with the bait; prey recruited to bait-positive internal structures
[2] = target: BioID2-Pdlim7 (human) (UniProt Q9NR12); assay: as above

binding [1] | binding [2] | Substance
binds |  | EGFP-Magi1 (from UniProt Q6RHR9 1-1471)
binds |  | EGFP-α-actinin-2 (from UniProt P35609 1-894)
binds |  | EGFP-Magi2 (from UniProt O88382 1-1277)
 | binds | HA-Magi2 (from UniProt O88382)
